Values quoted from earlier work as cited in patent publication US6531446B1, “Peptides having biological activity” (Korea Advanced Institute of Science and Technology, priority 1998, dated 2003).
Some of these results come from one statement about several compounds together.

Test system: Gram-positive and Gram-negative bacteria and fungi
Settings: Biochemical and Biophysical Research Communications 218, 408-413 (1996); cited from earlier work

In the case of Buforin I, the “concentration of antimicrobial activities” value is given as 1 to 4 µg/mL.
